Laboratory results: PubChem BioAssay AID1159584 (Peter MacCallum Cancer Centre, 2016)

- Test: 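Genes whose loss is lethal only together with E-cadherin loss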 (primary screen)
- System: human MCF10A breast epithelial cells, parental and CDH1-null
- Reagents: siRNA against human genes
- Detection: 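Cell viability by CellTiter-Glo ATP luminescence, each line scaled to the mean of mock wells across plates, then CDH1-null over parental ratio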
- Direction: CDH1-null / parental viability ratio: higher = CDH1-null cells survive relatively better than parental; CDH1-null viability vs mock: higher = more viable CDH1-null cells
The deposit covers about 18,000 reagents; this is a part drawn at random. Not all columns of the deposit are shown. Not given: the amount of reagent, the time to read-out.

target gene | PubChem SID | CDH1-null / parental viability ratio | CDH1-null viability vs mock (fraction of mock)
SPACDR (sperm acrosome developmental regulator) | SID135625024 | 0.86 | 0.74
ZNF787 (zinc finger protein 787) | SID152154748 | 1.07 | 0.75
TAAR6 (trace amine associated receptor 6) | SID152148914 | 0.83 | 0.88
NDST1 (N-deacetylase and N-sulfotransferase 1) | SID134314130 | 0.95 | 0.88
GNG8 (G protein subunit gamma 8) | SID135625055 | 0.9 | 0.52
LMTK2 (lemur tail kinase 2) | SID152147902 | 1.07 | 0.88
LRRC7 (leucine rich repeat containing 7) | SID135622662 | 1.06 | 1.06
CD8A (CD8 subunit alpha) | SID152152225 | 0.81 | 0.34
IDE (insulin degrading enzyme) | SID152155130 | 1.1 | 0.66
CYB561 (cytochrome b561) | SID152148565 | 1.38 | 1.02
CST1 (cystatin SN) | SID134321335 | 1.4 | 0.74
LCN2 (lipocalin 2) | SID152150110 | 0.91 | 0.72
KLHL4 (kelch like family member 4) | SID135622413 | 0.95 | 0.86
PDCD5 (programmed cell death 5) | SID134310472 | 1.23 | 0.76
SPATA31A7 (SPATA31 subfamily A member 7) | SID152156220 | 0.89 | 0.77
MOG (myelin oligodendrocyte glycoprotein) | SID135622358 | 1.5 | 0.75
LONRF3 (LON peptidase N-terminal domain and ring finger 3) | SID152154798 | 1.1 | 0.46
TTLL3 (tubulin tyrosine ligase like 3) | SID152150772 | 1 | 0.4
SGPP1 (sphingosine-1-phosphate phosphatase 1) | SID134318766 | 1.3 | 0.9
CKAP5 (cytoskeleton associated protein 5) | SID152155217 | 1.55 | 0.34
PTGER2 (prostaglandin E receptor 2) | SID134311143 | 0.69 | 0.74
STXBP5 (syntaxin binding protein 5) | SID134321228 | 1.13 | 1.06
MAPK15 (mitogen-activated protein kinase 15) | SID152151405 | 1.06 | 0.95
RETNLB (resistin like beta) | SID152148493 | 1.04 | 0.95
RC3H1 (ring finger and CCCH-type domains 1) | SID152156253 | 0.85 | 0.73
PIK3C3 (phosphatidylinositol 3-kinase catalytic subunit type 3) | SID134310831 | 0.98 | 0.86
S1PR5 (sphingosine-1-phosphate receptor 5) | SID134310636 | 0.88 | 0.74
TDG (thymine DNA glycosylase) | SID152150464 | 1.13 | 1.08
ST3GAL3 (ST3 beta-galactoside alpha-2,3-sialyltransferase 3) | SID152151913 | 0.95 | 0.53
NAPSA (napsin A aspartic peptidase) | SID134311401 | 1.1 | 0.92
TMEM268 (transmembrane protein 268) | SID152152382 | 1.2 | 0.6
MRGPRX3 (MAS related GPR family member X3) | SID152155062 | 0.86 | 0.86
DERA (deoxyribose-phosphate aldolase) | SID152146837 | 0.82 | 0.75
DPP10 (dipeptidyl peptidase like 10) | SID135621684 | 1.09 | 0.84
UGT1A4 (UDP glucuronosyltransferase family 1 member A4) | SID152152143 | 0.89 | 0.76
H2AC4 (H2A clustered histone 4) | SID134321525 | 0.8 | 0.48
RBP1 (retinol binding protein 1) | SID56478640 | 1.2 | 1.12
THTPA (thiamine triphosphatase) | SID152153166 | 1.29 | 0.9
VSIG1 (V-set and immunoglobulin domain containing 1) | SID152153461 | 1.06 | 0.85
RFPL4AL1 (ret finger protein like 4A like 1) | SID152156046 | 0.87 | 0.46
MYD88 (MYD88 innate immune signal transduction adaptor) | SID152151000 | 0.9 | 0.53
ADGRE5 (adhesion G protein-coupled receptor E5) | SID152148186 | 0.89 | 0.68
UNC80 (unc-80 subunit of NALCN channel complex) | SID134322687 | 1.06 | 0.72
SCTR (secretin receptor) | SID152148097 | 1.61 | 0.9
HUNK (hormonally up-regulated Neu-associated kinase) | SID56478785 | 0.87 | 0.65
GSTP1 (glutathione S-transferase pi 1) | SID134315537 | 1.01 | 0.95
ZNF764 (zinc finger protein 764) | SID135621317 | 0.88 | 0.8
FGL1 (fibrinogen like 1) | SID134312840 | 0.99 | 0.81
PTH1R (parathyroid hormone 1 receptor) | SID134311148 | 0.9 | 0.86
SRPK3 (SRSF protein kinase 3) | SID135620894 | 1.12 | 0.96
CLMN (calmin) | SID135623283 | 1.06 | 1.08
GSG1L (GSG1 like) | SID152156657 | 1.2 | 0.66
NPY (neuropeptide Y) | SID152153651 | 1.44 | 0.98
HDAC8 (histone deacetylase 8) | SID134309930 | 0.99 | 0.89
IQCB1 (IQ motif containing B1) | SID152152099 | 1.76 | 0.6
CUL7 (cullin 7) | SID134321592 | 0.97 | 0.66
CTAGE6 (CTAGE family member 6) | SID152152507 | 1.03 | 0.38
ARID3C (AT-rich interaction domain 3C) | SID152149809 | 0.87 | 0.84
DDX19B (DEAD-box helicase 19B) | SID135622538 | 0.5 | 0.14
ZNF44 (zinc finger protein 44) | SID152151671 | 0.8 | 0.66
OCA2 (OCA2 melanosomal transmembrane protein) | SID152150131 | 1.02 | 0.92
HOXD4 (homeobox D4) | SID134321509 | 1.05 | 0.82
MYH6 (myosin heavy chain 6) | SID152146929 | 1.28 | 0.73
CA9 (carbonic anhydrase 9) | SID135620961 | 1.02 | 0.84
CD1E (CD1e molecule) | SID135622789 | 0.81 | 0.78
NSG2 (neuronal vesicle trafficking associated 2) | SID134313697 | 0.79 | 0.53
MATN2 (matrilin 2) | SID152155843 | 0.71 | 0.29
FOXR2 (forkhead box R2) | SID134326812 | 0.97 | 0.85

Just “CDH1-null viability vs mock (fraction of mock)” (6 entries from above):
ZNF764 (zinc finger protein 764) [SID135621317] = 0.8
FGL1 (fibrinogen like 1) [SID134312840] = 0.81
PTH1R (parathyroid hormone 1 receptor) [SID134311148] = 0.86
SRPK3 (SRSF protein kinase 3) [SID135620894] = 0.96
CLMN (calmin) [SID135623283] = 1.08
GSG1L (GSG1 like) [SID152156657] = 0.66
